Measured values as given in article PMC4357705, “Human Rap1 modulates TRF2 attraction to telomeric DNA”.
Construct, isoform or probe ends are uncertain for at least one entry. A weaker result is weaker than the reference pair of the same experiment.

System: TRF2ΔB + Rap1
Assay: fluorescence anisotropy
Conditions: Rap1 releases more DNA than from full-length TRF2; 3'-C6 aminoalkyl linker on one strand; FA: 50 mM NaCl, 50 mM sodium phosphate pH 7.0, 25 °C, 7.5 nM DNA; recombinant protein; protein details: N-terminal His6; label: Alexa Fluor 488 at 3' end of one strand

GTTAGGGTTAGGGTTAG (double strand) [R2]: binds more weakly.
